Data: PubChem BioAssay AID1347423 (Functional Genomics Laboratory (NCATS/FGL), 2020)
About 210 (0.4%) of roughly 52,000 sequences were called active.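 Rule for the calls: active = gene whose silencing raises cell survival under the drug, median off-target-corrected z-score across its silencing RNAs 2 or more; inactive = the rest.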 The list shows a part of the results.

Test: Resistance to Poly (ADP-Ribose) Polymerase inhibitor: Gene Identification via Genome-wide siRNA Screen
Conditions: mouse BRCA2 R2336H ES cells, olaparib, CellTiter-Glo viability; stronger effect = higher value
Summary of the method: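 Genome-wide siRNA screen (3 siRNAs/gene, 20 nM) in mouse ES cells carrying hypomorphic BRCA2 R2336H; olaparib 500 nM added 48 h post-transfection, CellTiter-Glo viability 72 h later. Normalized to plate-median negative control; MAD z-scores, gene median, seed-adjusted.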
For CCUCCGAAUUGCCCUUCUGTT against Gtf2h4, the z-score was inactive: -1.05. For GGAUGUUCAACCUAAACGATT against Ferd3l, the z-score was inactive: 1.53. With “GGCCUUGGAGUAGCUUUGATT against 2810417D08Rik” the z-score was inactive: -2.26. In the case of CGUGUACCAGCUACCUAAGTT against Phc2, the z-score is reported as inactive: -0.83. With GCUAACAGUGGGUUAUUUATT against Tgfb2 the z-score was inactive: 1.06. For “GGAAGAUUCCAAAACUAGATT against 9430097H08Rik”, the z-score was inactive: -0.0319. With GGAAAGUCCUUCAUCAGCATT against AU016693 the z-score was inactive: -0.312. For GGAUUUUUUUUCCAGAAGCTT against Apln, the z-score was inactive: 0.394. In the case of CCUGUUUUCCGACUUGUUGTT against Il4ra, the z-score is reported as inactive: -0.55. In the case of GGGAGAAAAUCAAAGUAAUTT against Trim13, the z-score is reported as inactive: -2.61. With “GGGACAGAUGCUUUUGUACTT against 1700072E05Rik” the z-score was inactive: 0.757. In the case of GCUGAACGACAAUAAGGGCTT against Ltbp1, the z-score is reported as inactive: 0.37. With GGAAUGAAGUUCACAAUAATT against Ide the z-score was inactive: 0.457. With “CGUGAUCGAUGGGAAGAAUTT against 2900041A09Rik” the z-score was inactive: 0.39. With GCUACUUGCUCAUACAAAGTT against Rag2 the z-score was inactive: -0.908. With GCAAGCAAUAGAGGAACCUTT against Rnf38 the z-score was inactive: -2.39. For GGAUCAACAGAGGUUGGCATT against Aldh1a7, the z-score was inactive: 0.328. With “GCUUGUAACCUAGCAGCUGTT against 6330530A05Rik” the z-score was inactive: 1.03. In the case of GGUUGUGUUUUGAUAGGAATT against Slfn5, the z-score is reported as inactive: -0.268. In the case of CGGUUAAAAGCACUGCUCGTT against Tmc1, the z-score is reported as inactive: 1.04. With AGAAACUGUUGGGUGAAAATT against Olfr329 the z-score was inactive: 0.47. With GUUCAAGCAGAGGCAGACUTT against Pde6h the z-score was inactive: 1.35. With CCUAAAAGACUUUGGAGACTT against Arg2 the z-score was inactive: -0.481. In the case of GGCAUCUCCCACAUUAGAGTT against Sell, the z-score is reported as inactive: 0.538. In the case of “GCUGUGUGCUAUUUCCCACTT against 2810417J12Rik”, the z-score is reported as inactive: 2.12. For “GGAUCGGCUAGCUUUGAGCTT against 1810026J23Rik”, the z-score was inactive: -0.17. In the case of “GGAGUCUGCUGGUUUAGUGTT against 1110001J03Rik”, the z-score is reported as inactive: 1.16. For GGCAAAAGACUGGUUUUGUTT against Nr2f2, the z-score was inactive: 1.01. With GGAAGACUUGGCUACACAATT against Rab40c the z-score was inactive: -0.131.
